Reference: patent US20060160201A1, “Three-dimensional structures of HDAC9 and Cabin1 and compound structures and methods related thereto” (priority 2003, published 2006)
These are yes or no findings as the source states them, for the method shown. For some of these results: Binding seen in cells or lysates may run through a third protein. Some binding calls cover weakened binding; strength is not graded here.

Sequences of proteins named here, by UniProt entry; tags and fusion partners are left off. A change or cut given only in a name is not applied to a line headed by its entry.
UniProt Q9Y6J0: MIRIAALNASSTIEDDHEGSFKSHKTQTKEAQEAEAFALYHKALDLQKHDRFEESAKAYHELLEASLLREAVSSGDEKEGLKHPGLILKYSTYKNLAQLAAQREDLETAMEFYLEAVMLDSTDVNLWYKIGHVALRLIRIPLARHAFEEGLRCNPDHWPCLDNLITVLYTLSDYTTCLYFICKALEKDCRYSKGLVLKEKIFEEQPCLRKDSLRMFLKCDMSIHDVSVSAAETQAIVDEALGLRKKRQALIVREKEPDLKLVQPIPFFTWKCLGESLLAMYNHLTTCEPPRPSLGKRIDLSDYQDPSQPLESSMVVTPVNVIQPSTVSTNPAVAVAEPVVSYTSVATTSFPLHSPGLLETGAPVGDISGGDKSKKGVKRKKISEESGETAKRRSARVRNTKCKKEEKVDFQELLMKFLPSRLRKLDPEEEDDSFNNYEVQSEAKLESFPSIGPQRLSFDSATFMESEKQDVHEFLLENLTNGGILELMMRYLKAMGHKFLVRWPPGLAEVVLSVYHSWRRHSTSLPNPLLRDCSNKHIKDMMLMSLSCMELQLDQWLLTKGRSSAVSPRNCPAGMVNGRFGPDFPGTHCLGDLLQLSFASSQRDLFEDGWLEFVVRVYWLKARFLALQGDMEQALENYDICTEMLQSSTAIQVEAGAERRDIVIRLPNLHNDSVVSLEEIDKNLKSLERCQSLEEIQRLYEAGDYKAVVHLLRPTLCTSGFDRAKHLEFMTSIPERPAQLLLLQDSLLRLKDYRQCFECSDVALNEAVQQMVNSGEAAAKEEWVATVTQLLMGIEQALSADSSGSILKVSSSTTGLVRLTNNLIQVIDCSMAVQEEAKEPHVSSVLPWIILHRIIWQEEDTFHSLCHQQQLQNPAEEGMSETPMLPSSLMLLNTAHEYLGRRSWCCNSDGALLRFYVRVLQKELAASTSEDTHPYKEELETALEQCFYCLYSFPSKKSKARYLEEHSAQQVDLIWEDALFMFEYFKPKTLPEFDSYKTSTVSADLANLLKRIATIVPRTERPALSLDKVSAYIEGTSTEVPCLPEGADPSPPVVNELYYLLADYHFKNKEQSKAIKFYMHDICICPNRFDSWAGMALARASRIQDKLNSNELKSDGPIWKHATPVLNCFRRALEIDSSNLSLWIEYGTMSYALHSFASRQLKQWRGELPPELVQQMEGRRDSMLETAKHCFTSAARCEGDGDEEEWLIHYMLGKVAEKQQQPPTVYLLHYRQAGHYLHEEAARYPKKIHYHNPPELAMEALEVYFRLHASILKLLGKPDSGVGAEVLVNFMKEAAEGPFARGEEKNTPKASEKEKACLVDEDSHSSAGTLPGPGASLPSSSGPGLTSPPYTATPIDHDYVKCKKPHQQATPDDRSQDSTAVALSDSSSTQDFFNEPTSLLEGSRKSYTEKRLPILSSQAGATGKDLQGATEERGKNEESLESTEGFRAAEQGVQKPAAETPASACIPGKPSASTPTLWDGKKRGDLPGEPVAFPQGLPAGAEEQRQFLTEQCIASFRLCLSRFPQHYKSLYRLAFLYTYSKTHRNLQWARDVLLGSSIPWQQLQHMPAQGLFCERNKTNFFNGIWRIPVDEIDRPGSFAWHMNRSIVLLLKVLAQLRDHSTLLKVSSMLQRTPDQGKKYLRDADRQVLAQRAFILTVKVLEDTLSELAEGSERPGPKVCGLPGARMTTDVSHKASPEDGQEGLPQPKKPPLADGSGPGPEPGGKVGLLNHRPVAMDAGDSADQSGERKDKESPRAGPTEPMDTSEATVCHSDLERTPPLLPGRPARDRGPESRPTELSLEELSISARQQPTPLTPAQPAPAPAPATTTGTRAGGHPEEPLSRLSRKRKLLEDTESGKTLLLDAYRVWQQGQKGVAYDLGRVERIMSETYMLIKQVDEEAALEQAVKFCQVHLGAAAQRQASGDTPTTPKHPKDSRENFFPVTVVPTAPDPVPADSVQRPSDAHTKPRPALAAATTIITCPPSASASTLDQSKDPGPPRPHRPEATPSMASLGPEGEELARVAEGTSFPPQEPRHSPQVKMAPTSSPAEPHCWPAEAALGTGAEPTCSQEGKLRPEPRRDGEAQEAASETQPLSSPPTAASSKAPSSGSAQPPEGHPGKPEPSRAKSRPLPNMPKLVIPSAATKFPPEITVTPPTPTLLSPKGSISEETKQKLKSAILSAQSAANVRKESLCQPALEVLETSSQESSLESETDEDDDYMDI

Assays:
[1] = target: glutathione S-transferase (GST)-MEF2B fusion (human) (UniProt Q02080); assay: GST pull-down of [35S]-labeled Cabin1 (2144-2220) mutant on GST-MEF2B beads
MEF2B (1-116) (human) = MEF2B (1-116) (human) (UniProt Q02080); assay: EMSA, titration of Cabin1 (2144-2220) to the MEF2B (1-116) dimer/DNA complex
[2] = target: T1, MEF2 (construct not stated) (human, UniProt Q02080 1-365, limits assumed); assay: in vitro binding, not described
T1 construct: The actual construct is unknown; also called MEF2B
T1 sequence: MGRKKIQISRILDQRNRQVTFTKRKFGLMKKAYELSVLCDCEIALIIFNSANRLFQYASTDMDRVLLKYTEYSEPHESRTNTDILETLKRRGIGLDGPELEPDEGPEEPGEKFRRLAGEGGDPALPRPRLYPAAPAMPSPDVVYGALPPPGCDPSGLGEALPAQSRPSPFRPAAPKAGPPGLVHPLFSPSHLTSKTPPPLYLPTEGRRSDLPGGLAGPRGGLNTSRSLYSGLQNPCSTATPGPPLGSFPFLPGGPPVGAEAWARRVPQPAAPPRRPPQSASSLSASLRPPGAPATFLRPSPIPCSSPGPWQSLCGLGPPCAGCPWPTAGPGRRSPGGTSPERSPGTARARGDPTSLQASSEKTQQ

binding [1] | Substance | further results
binds | Cabin1 (2144-2220) Gln70Ala mutant (from UniProt Q9Y6J0 2144-2220) | –
binds | Cabin1 (2144-2220) Gln70Trp mutant (from UniProt Q9Y6J0 2144-2220) | –
– | Cabin1 (2144-2220), wild type (from UniProt Q9Y6J0 2144-2220) | binding (MEF2B (1-116) (human)): binds
– | Cabin1 (construct not stated) (from UniProt Q9Y6J0 1-2220) | binding [2]: binds
